Data taken from PubChem BioAssay AID280 (DTP/NCI, 2004).
The list does not hold the whole screen: it gathers some chemical classes. Not every dose and run of a compound is shown. T/C: endpoint of the treated group in % of that of the vehicle group. For survival time, this PubChem deposit counts one and a half times the control or more as active, and values a quarter to a half above the control carry no call in these data; other NCI protocols may use other cut-offs. Schedule codes are those of the source, taken here to give the interval after Q, in days (D) or hours (H), and the number of doses after X. Some T/C values are marked as having no survivor count here; that says nothing about deaths at the dose.

System: nude mice, LOX melanoma ip, survival T/C
Assay: NCI In Vivo Anticancer Drug Screen. Data for tumor model Human Amelanotic Melanoma (LOX) (intraperitoneal) in NU/NU BALB/C (nude) mice
Conditions: T/C endpoint: median survival time, schedule: Q04DX003 (ip), higher T/C = longer survival
Procedure: The antitumor activity of compounds was measured in mice bearing transplantable tumors. Survival or tumor size were measured and the results are expressed as the measurement made in the treated group (T) divided by the measurement made in the vehicle treated control group (C). The tumor model used in this assay is Human Amelanotic Melanoma (LOX) (intraperitoneal) in NU/NU BALB/C (nude) mice

For `CC(=O)OCC12CCC(C)=CC1OC1C(O)C(OC(C)=O)C2(C)C12CO2` (centres undefined), the T/C (dose: 0.5 mg/kg/injection, vehicle: saline) was 103 % of control [survivor count not shown], the T/C (dose: 1.0 mg/kg/injection, vehicle: saline) was 109 % of control [survivor count not shown] and the T/C (dose: 2.0 mg/kg/injection, vehicle: saline) was 95 % of control [survivor count not shown]. For the same compound, the T/C (dose: 4.0 mg/kg/injection, vehicle: saline) was 106 % of control [survivor count not shown].

With `CC(O)C1/C=C/C=C/C(=O)OC2CC3OC4C5OC5(C)C(O)CC4(COC(=O)C(O)C(C)CCO1)C2(C)C31CO1` (centres undefined) the T/C (dose: 6.25 mg/kg/injection, vehicle: saline + alcohol) was 117 % of control [survivor count not shown], the T/C (dose: 12.5 mg/kg/injection, vehicle: saline + alcohol) was 121 % of control [survivor count not shown] and the T/C (dose: 25.0 mg/kg/injection, vehicle: saline + alcohol) was 128 % of control [survivor count not shown]. For the same compound, the T/C (dose: 50.0 mg/kg/injection, vehicle: saline + alcohol) was 153 % of control [survivor count not shown] and the T/C (dose: 100.0 mg/kg/injection, vehicle: saline + alcohol) was 165 % of control [survivor count not shown].
